Measured values: article PMC9106349
Results are given in words; binding and its absence hold for the method and conditions named. Binding seen in cells or lysates may run through a third protein. Binding can be weak; no strength is given. Where a sequence is shown, tags or fusion partners need not be part of it.

Target: T1, myc-tagged UNC45A WT (human) (UniProt Q9H3U1)
T1 sequence: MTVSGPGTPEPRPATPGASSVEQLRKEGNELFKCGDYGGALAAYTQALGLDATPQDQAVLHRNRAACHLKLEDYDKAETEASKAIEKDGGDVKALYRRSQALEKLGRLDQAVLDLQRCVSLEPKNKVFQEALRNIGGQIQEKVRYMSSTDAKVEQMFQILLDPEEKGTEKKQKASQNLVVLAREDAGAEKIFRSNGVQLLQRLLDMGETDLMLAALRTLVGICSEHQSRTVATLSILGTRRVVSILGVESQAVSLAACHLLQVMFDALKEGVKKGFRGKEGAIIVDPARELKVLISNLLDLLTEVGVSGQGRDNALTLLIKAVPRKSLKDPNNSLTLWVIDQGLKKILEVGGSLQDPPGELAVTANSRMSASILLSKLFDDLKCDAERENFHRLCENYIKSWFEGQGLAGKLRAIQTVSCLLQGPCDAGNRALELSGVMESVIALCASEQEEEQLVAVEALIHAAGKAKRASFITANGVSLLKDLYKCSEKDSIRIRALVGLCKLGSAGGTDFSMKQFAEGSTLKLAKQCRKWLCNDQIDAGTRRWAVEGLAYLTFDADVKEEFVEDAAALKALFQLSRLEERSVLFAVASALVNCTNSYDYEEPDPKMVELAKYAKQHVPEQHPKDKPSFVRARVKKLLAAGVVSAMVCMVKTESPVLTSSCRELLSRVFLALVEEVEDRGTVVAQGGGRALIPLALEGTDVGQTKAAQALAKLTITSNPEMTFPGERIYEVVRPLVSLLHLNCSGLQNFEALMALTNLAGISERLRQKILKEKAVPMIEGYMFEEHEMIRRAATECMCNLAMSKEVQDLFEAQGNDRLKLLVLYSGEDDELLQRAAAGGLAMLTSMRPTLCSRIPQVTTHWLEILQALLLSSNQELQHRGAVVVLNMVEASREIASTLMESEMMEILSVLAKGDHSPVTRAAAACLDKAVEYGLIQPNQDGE
Experiment: co-IP; myc immunoprecipitates of WT-UNC45A from Caco-2 lysate (μMACS c-myc Isolation Kit), Western blot for myosin VB and HSP90

Q: HSP90 (human (endogenous in Caco-2)) was tested. Which binding did it give?
A: binds
